The values that follow come from paper PMC4352044.

In the assay the target is T1, Scc3-6HA (budding yeast) (UniProt P40541).
T1 sequence: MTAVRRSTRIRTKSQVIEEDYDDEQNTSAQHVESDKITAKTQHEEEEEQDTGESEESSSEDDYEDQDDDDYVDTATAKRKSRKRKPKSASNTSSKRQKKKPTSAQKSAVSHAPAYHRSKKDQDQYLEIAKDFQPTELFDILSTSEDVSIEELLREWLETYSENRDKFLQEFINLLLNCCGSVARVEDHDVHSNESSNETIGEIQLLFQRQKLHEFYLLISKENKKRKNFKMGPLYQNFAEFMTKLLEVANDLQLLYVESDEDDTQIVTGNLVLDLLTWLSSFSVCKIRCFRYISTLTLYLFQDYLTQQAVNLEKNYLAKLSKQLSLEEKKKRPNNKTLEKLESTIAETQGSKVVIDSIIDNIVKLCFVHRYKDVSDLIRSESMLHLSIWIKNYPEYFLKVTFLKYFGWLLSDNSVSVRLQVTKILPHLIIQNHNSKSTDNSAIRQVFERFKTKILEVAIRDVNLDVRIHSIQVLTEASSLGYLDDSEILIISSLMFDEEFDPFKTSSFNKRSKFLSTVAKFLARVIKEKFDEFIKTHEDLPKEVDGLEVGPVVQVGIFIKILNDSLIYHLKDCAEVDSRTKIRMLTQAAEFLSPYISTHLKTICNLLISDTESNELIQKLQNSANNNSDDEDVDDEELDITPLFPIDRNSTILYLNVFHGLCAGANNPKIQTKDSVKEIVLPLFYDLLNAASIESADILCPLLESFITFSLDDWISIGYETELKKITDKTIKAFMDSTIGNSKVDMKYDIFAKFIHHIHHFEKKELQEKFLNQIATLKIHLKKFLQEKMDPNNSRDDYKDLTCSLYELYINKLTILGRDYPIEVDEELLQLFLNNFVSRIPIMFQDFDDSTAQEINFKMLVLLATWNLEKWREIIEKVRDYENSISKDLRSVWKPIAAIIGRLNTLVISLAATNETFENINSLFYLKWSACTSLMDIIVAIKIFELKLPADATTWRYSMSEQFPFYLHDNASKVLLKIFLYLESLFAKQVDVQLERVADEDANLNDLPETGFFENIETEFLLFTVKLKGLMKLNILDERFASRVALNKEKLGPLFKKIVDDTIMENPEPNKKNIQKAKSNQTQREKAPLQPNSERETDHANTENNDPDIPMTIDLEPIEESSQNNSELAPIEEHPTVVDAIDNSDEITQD
The experiment in a line: co-IP; anti-HA immunoprecipitation of Scc3-6HA (wild type or mutant) from yeast lysates, mid-log cells; IPH150 or IPH50 buffer (50 mM Tris pH 8.0, 150/50 mM NaCl, 5 mM EDTA, 0.5% NP-40, 1 mM DTT), 4°C, protein A/G agarose, Western blot of partners; also in wpl1Δ strains and after depletion of Pds5-3V5-AID with 1 mM IAA. Background: A western blot detects proteins with antibodies after separation by electrophoresis.

These are yes or no findings as the source states them, for the method shown. Binding seen in cells or lysates may run through a third protein. Some binding calls cover weakened binding; strength is not graded here. Tags and fused reporters may be left off the sequences shown.

B1: Scc2-3V5 (protein, UniProt Q04002 1-1493)
chain: MSYPGKDKNIPGRIIEALEDLPLSYLVPKDGLAALVNAPMRVSLPFDKTIFTSADDGRDVNINVLGTANSTTSSIKNEAEKERLVFKRPSNFTSSANSVDYVPTNFLEGLSPLAQSVLSTHKGLNDSINIEKKSEIVSRPEAKHKLESVTSNAGNLSFNDNSSNKKTKTSTGVTMTQANLAEQYLNDLKNILDIVGFDQNSAEIGNIEYWLQLPNKKFVLTTNCLTKLQMTIKNITDNPQLSNSIEITWLLRLLDVMVCNIKFSKSSLKMGLDDSMLRYIALLSTIVLFNIFLLGKNDSNLHRESYIMEPVNFLSDLIESLKILTIEYGSLKIEFDTFQEALELLPKYIRNGPFLDDNVTAKLVYIFSDLLMNNDIEATTNIQFQSFWDNVKRISSDILVSLFGSFDQQRGFIIEELLSHIEKLPTKRIQKKLRKVGNQNIYITDFTFTLMSMLENINCYSFCNQMKDIAPENIDLLKNEYKKQEEFLFNIVEHINDTILERFFKNPSALRYVIDNFVQDLLLLISSPQWPVTEKILSSLLKRLLSVYSPSMQVSANIETICLQLIGNIGSTIFDIKCSTRDHEDNNLIKMINYPETLPHFFKSFEECIAYNETIKCRRSATRFLWNLRLGTILILEEYTKDAKEQIITVDNELKKILEQIKDGGLGPELENREADFSTIKLDYFSILHAFELLNLYDPYLKLILSLLAKDKIKLRSTAIKCLSMLASKDKVILSNPMVKETIHRRLNDSSASVKDAILDLVSINSSYFEFYQQINNNYNDDSIMVRKHVLRINEKMYDETNDIVTKVYVIARILMKIEDEEDNIIDMARLILLNRWILKVHEVLDQPEKLKEISSSVLLVMSRVAIMNEKCSQLFDLFLNFYLLNKEAHSKEAYDKITHVLTILTDFLVQKIVELNSDDTNEKNSIVDKQNFLNLLAKFADSTVSFLTKDHITALYPYMVSDEKSDFHYYILQVFRCTFEKLANFKQKFLYDLETTLLSRLPKMNVREIDEAMPLIWSVATHRHDTARVAKACSSCLSHLHPYINKANNEEAAIVVDGKLQRLIYLSTGFARFCFPKPSNDKIAFLQEGETLYEHITKCLLVLSKDKITHVIRRVAVKNLTKLCGNHPKLFNSRHVLHLLDKEFQSDQLDIKLVILESLYDLFLLEERKSVRNTGVNSTLSSNSILKKKLLKTNRVEFANDGVCSALATRFLDNILQLCLLRDLKNSLVAIRLLKLILKFGYTNPSHSIPTVIALFASTSQYIRHVAYELLEDLFEKYETLVFSSLSRGVTKAIHYSIHTDEKYYYKHDHFLSLLEKLCGTGKKNGPKFFKVLKRIMQSYLDDITDLTSTNSSVQKSIFVLCTNISNITFVSQYDLVSLLKTIDLTTDRLKEVIMDEIGDNVSSLSVSEEKLSGIILIQLSLQDLGTYLLHLYGLRDDVLLLDIVEESELKNKQLPAKKPDISKFSAQLENIEQYSSNGKLLTYFRKHVKDT
Turning to B1, the binding result is listed as “binds”.

B2: Scc2-12Myc (protein, UniProt Q04002 1-1493)
chain: MSYPGKDKNIPGRIIEALEDLPLSYLVPKDGLAALVNAPMRVSLPFDKTIFTSADDGRDVNINVLGTANSTTSSIKNEAEKERLVFKRPSNFTSSANSVDYVPTNFLEGLSPLAQSVLSTHKGLNDSINIEKKSEIVSRPEAKHKLESVTSNAGNLSFNDNSSNKKTKTSTGVTMTQANLAEQYLNDLKNILDIVGFDQNSAEIGNIEYWLQLPNKKFVLTTNCLTKLQMTIKNITDNPQLSNSIEITWLLRLLDVMVCNIKFSKSSLKMGLDDSMLRYIALLSTIVLFNIFLLGKNDSNLHRESYIMEPVNFLSDLIESLKILTIEYGSLKIEFDTFQEALELLPKYIRNGPFLDDNVTAKLVYIFSDLLMNNDIEATTNIQFQSFWDNVKRISSDILVSLFGSFDQQRGFIIEELLSHIEKLPTKRIQKKLRKVGNQNIYITDFTFTLMSMLENINCYSFCNQMKDIAPENIDLLKNEYKKQEEFLFNIVEHINDTILERFFKNPSALRYVIDNFVQDLLLLISSPQWPVTEKILSSLLKRLLSVYSPSMQVSANIETICLQLIGNIGSTIFDIKCSTRDHEDNNLIKMINYPETLPHFFKSFEECIAYNETIKCRRSATRFLWNLRLGTILILEEYTKDAKEQIITVDNELKKILEQIKDGGLGPELENREADFSTIKLDYFSILHAFELLNLYDPYLKLILSLLAKDKIKLRSTAIKCLSMLASKDKVILSNPMVKETIHRRLNDSSASVKDAILDLVSINSSYFEFYQQINNNYNDDSIMVRKHVLRINEKMYDETNDIVTKVYVIARILMKIEDEEDNIIDMARLILLNRWILKVHEVLDQPEKLKEISSSVLLVMSRVAIMNEKCSQLFDLFLNFYLLNKEAHSKEAYDKITHVLTILTDFLVQKIVELNSDDTNEKNSIVDKQNFLNLLAKFADSTVSFLTKDHITALYPYMVSDEKSDFHYYILQVFRCTFEKLANFKQKFLYDLETTLLSRLPKMNVREIDEAMPLIWSVATHRHDTARVAKACSSCLSHLHPYINKANNEEAAIVVDGKLQRLIYLSTGFARFCFPKPSNDKIAFLQEGETLYEHITKCLLVLSKDKITHVIRRVAVKNLTKLCGNHPKLFNSRHVLHLLDKEFQSDQLDIKLVILESLYDLFLLEERKSVRNTGVNSTLSSNSILKKKLLKTNRVEFANDGVCSALATRFLDNILQLCLLRDLKNSLVAIRLLKLILKFGYTNPSHSIPTVIALFASTSQYIRHVAYELLEDLFEKYETLVFSSLSRGVTKAIHYSIHTDEKYYYKHDHFLSLLEKLCGTGKKNGPKFFKVLKRIMQSYLDDITDLTSTNSSVQKSIFVLCTNISNITFVSQYDLVSLLKTIDLTTDRLKEVIMDEIGDNVSSLSVSEEKLSGIILIQLSLQDLGTYLLHLYGLRDDVLLLDIVEESELKNKQLPAKKPDISKFSAQLENIEQYSSNGKLLTYFRKHVKDT
Regarding B2, the binding result is on record as “binds”.
